# Some of the results follow.
# B1: Tp0751, 83732 (protein)
# chain: MSYYHHHHHHLESTSLYKKAGFQHGHVPPRRIPPHDTFGALPTAALPSNARDTAAHPSDTADNTSGSSTTTDPRSHGNAPPAPVGGAAQTHTQPPVQTAMRIALWNRATHGEQGALQHLLAGLWIQTEISPNSGDIHPLLFFDREHAEITFSRASVQEIFLVDSAHTHRKTVSFLTRNTAISSIRRRLEVTFESHEVIHVRAVEDVARLKIGSTSMWDGQYTRYHAGPASAPSP
# Tests used:
# Assay in all cases: glycan array binding signal (z-score within array); higher = stronger binding
# Conditions in all cases: glycan notation: IUPAC condensed, linker removed
# [1] = biological target: Neu5Ac(a2-6)Gal(b1-4)GlcNAc(b1-3)Gal(b1-4)GlcNAc(b1-3)Gal(b1-4)GlcNAc(b1-2)Man(a1-3)[Neu5Ac(a2-6)Gal(b1-4)GlcNAc(b1-3)Gal(b1-4)GlcNAc(b1-3)Gal(b1-4)GlcNAc(b1-2)Man(a1-6)]GalNAc
# Outline: (§1)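 From the Consortium for Functional Glycomics database, 3228 arrays were curated, keeping only those whose protein sequence was available. Binding is given as a within-array Z-score averaged across arrays sharing a protein sequence and across linkers. Negative Z-scores can be read as non-binding.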
# [2] = biological target: Neu5Ac(a2-6)Gal(b1-4)GlcNAc(b1-3)Gal(b1-4)GlcNAc(b1-3)GalNAc
# Outline: as §1
# [3] = biological target: Neu5Ac(a2-6)Gal(b1-4)GlcNAc(b1-3)Gal(b1-4)GlcNAc(b1-3)[Neu5Ac(a2-6)Gal(b1-4)GlcNAc(b1-3)Gal(b1-4)GlcNAc(b1-6)]GalNAc
# Outline: as §1
# [4] = biological target: Neu5Ac(a2-6)Gal(b1-4)GlcNAc(b1-3)Gal(b1-4)GlcNAc(b1-6)[Gal(b1-3)]GalNAc
# Outline: as §1
# [5] = biological target: Neu5Ac(a2-6)Gal(b1-4)GlcNAc(b1-3)Gal(b1-4)[Fuc(a1-3)]GlcNAc(b1-3)Gal(b1-4)[Fuc(a1-3)]GlcNAc
# Outline: as §1
# [6] = biological target: Neu5Ac(a2-6)Gal(b1-4)GlcNAc(b1-3)GalNAc
# Outline: as §1
# [7] = biological target: Neu5Ac(a2-6)Gal(b1-4)GlcNAc(b1-3)[Neu5Ac(a2-6)Gal(b1-4)GlcNAc(b1-6)]GalNAc
# Outline: as §1
# [8] = biological target: Neu5Ac(a2-6)Gal(b1-4)GlcNAc(b1-6)GalNAc
# Outline: as §1
# [9] = biological target: Neu5Ac(a2-6)Gal(b1-4)GlcNAc(b1-6)[Gal(b1-3)GlcNAc(b1-3)]Gal(b1-4)Glc
# Outline: as §1
# [10] = biological target: Neu5Ac(a2-6)Gal(b1-4)GlcNAc(b1-6)[Gal(b1-3)]GalNAc
# Outline: as §1
# [11] = biological target: Neu5Ac(a2-6)Gal(b1-4)GlcNAc6S
# Outline: as §1
# [12] = biological target: Neu5Ac(a2-6)GalNAc
# Outline: as §1
# [13] = biological target: Neu5Ac(a2-6)GalNAc(b1-4)GlcNAc
# Outline: as §1
# [14] = biological target: Neu5Ac(a2-6)GalNAc(b1-4)GlcNAc6S
# Outline: as §1
# [15] = biological target: Neu5Ac(a2-6)GlcNAc(b1-4)GlcNAc
# Outline: as §1
# [16] = biological target: Neu5Ac(a2-6)GlcNAc(b1-4)GlcNAc(b1-4)GlcNAc
# Outline: as §1
# [17] = biological target: Neu5Ac(a2-8)Neu5Ac
# Outline: as §1
# [18] = biological target: Neu5Ac(a2-8)Neu5Ac(a2-3)Gal(b1-3)GalNAc(b1-4)[Neu5Ac(a2-3)]Gal(b1-4)Glc
# Outline: as §1
# [19] = biological target: Neu5Ac(a2-8)Neu5Ac(a2-3)Gal(b1-3)GalNAc(b1-4)[Neu5Ac(a2-8)Neu5Ac(a2-3)]Gal(b1-4)Glc
# Outline: as §1
# [20] = biological target: Neu5Ac(a2-8)Neu5Ac(a2-3)Gal(b1-4)Glc
# Outline: as §1
# [21] = biological target: Neu5Ac(a2-8)Neu5Ac(a2-3)Gal(b1-4)GlcNAc
# Outline: as §1
# [22] = biological target: Neu5Ac(a2-8)Neu5Ac(a2-3)[Gal(b1-3)GalNAc(b1-4)]Gal(b1-4)Glc
# Outline: as §1
# [23] = biological target: Neu5Ac(a2-8)Neu5Ac(a2-3)[GalNAc(b1-4)]Gal(b1-4)Glc
# Outline: as §1
# [24] = biological target: Neu5Ac(a2-8)Neu5Ac(a2-8)Neu5Ac
# Outline: as §1
# [25] = biological target: Neu5Ac(a2-8)Neu5Ac(a2-8)Neu5Ac(a2-3)Gal(b1-4)Glc
# Outline: as §1
# [26] = biological target: Neu5Ac(a2-8)Neu5Ac(a2-8)Neu5Ac(a2-3)[Gal(b1-3)GalNAc(b1-4)]Gal(b1-4)Glc
# Outline: as §1
# [27] = biological target: Neu5Ac(a2-8)Neu5Ac(a2-8)Neu5Ac(a2-3)[GalNAc(b1-4)]Gal(b1-4)Glc
# Outline: as §1
# [28] = biological target: Neu5Ac(a2-8)Neu5Ac(a2-8)Neu5Ac(a2-8)Neu5Ac(a2-3)[GalNAc(b1-4)]Gal(b1-4)Glc
# Outline: as §1
# [29] = biological target: Neu5Ac(a2-8)Neu5Gc(a2-3)Gal(b1-4)GlcNAc
# Outline: as §1
# [30] = biological target: Neu5Ac(b2-6)Gal(b1-4)GlcNAc
# Outline: as §1
# [31] = biological target: Neu5Ac(b2-6)GalNAc
# Outline: as §1
# [32] = biological target: Neu5Ac9Ac(a2-3)Gal(b1-4)GlcNAc
# Outline: as §1
# [33] = biological target: Neu5Ac9Ac(a2-6)Gal(b1-4)GlcNAc
# Outline: as §1
# [34] = biological target: Neu5Gc(a2-3)Gal(b1-3)GlcNAc
# Outline: as §1
# [35] = biological target: Neu5Gc(a2-3)Gal(b1-3)[Fuc(a1-4)]GlcNAc
# Outline: as §1
# [36] = biological target: Neu5Gc(a2-3)Gal(b1-4)Glc
# Outline: as §1
# [37] = biological target: Neu5Gc(a2-3)Gal(b1-4)GlcNAc
# Outline: as §1
# [38] = biological target: Neu5Gc(a2-3)Gal(b1-4)GlcNAc(b1-3)Gal(b1-4)GlcNAc(b1-2)Man(a1-3)[Neu5Gc(a2-3)Gal(b1-4)GlcNAc(b1-3)Gal(b1-4)GlcNAc(b1-2)Man(a1-6)]Man(b1-4)GlcNAc(b1-4)GlcNAc
# Outline: as §1
# [39] = biological target: Neu5Gc(a2-3)Gal(b1-4)[Fuc(a1-3)]GlcNAc
# Outline: as §1
# [40] = biological target: Neu5Gc(a2-6)Gal(b1-4)GlcNAc
# Outline: as §1
# [41] = biological target: Neu5Gc(a2-6)GalNAc
# Outline: as §1
# [42] = biological target: Neu5Gc(a2-8)Neu5Ac(a2-3)Gal(b1-4)GlcNAc
# Outline: as §1
# [43] = biological target: Neu5Gc(a2-8)Neu5Gc(a2-3)Gal(b1-4)GlcNAc
# Outline: as §1
# [44] = biological target: Neu5Gc(a2-8)Neu5Gc(a2-3)Gal(b1-4)GlcNAc(b1-3)Gal(b1-4)GlcNAc
# Outline: as §1
# [45] = biological target: Neu5Gc(a2-8)Neu5Gc(a2-6)Gal(b1-4)GlcNAc
# Outline: as §1
# [46] = biological target: Neu5Gc(b2-6)Gal(b1-4)GlcNAc
# Outline: as §1
binder,measurement,setting,value
B1,glycan array binding signal (z-score),[1],0.794
same,glycan array binding signal (z-score),[2],-0.172
same,glycan array binding signal (z-score),[3],0.297
same,glycan array binding signal (z-score),[4],-0.341
same,glycan array binding signal (z-score),[5],-0.049
same,glycan array binding signal (z-score),[6],0.562
same,glycan array binding signal (z-score),[7],0.221
same,glycan array binding signal (z-score),[8],0.605
same,glycan array binding signal (z-score),[9],-0.122
same,glycan array binding signal (z-score),[10],-0.05
same,glycan array binding signal (z-score),[11],-0.301
same,glycan array binding signal (z-score),[12],0.257
same,glycan array binding signal (z-score),[13],-0.508
same,glycan array binding signal (z-score),[14],0.102
same,glycan array binding signal (z-score),[15],-0.395
same,glycan array binding signal (z-score),[16],-0.453
same,glycan array binding signal (z-score),[17],-0.322
same,glycan array binding signal (z-score),[18],-0.471
same,glycan array binding signal (z-score),[19],0.938
same,glycan array binding signal (z-score),[20],-0.367
same,glycan array binding signal (z-score),[21],0.24
same,glycan array binding signal (z-score),[22],-0.253
same,glycan array binding signal (z-score),[23],-0.022
same,glycan array binding signal (z-score),[24],-0.242
same,glycan array binding signal (z-score),[25],0.36
same,glycan array binding signal (z-score),[26],-0.594
same,glycan array binding signal (z-score),[27],-0.441
same,glycan array binding signal (z-score),[28],-0.293
same,glycan array binding signal (z-score),[29],-0.55
same,glycan array binding signal (z-score),[30],-0.267
same,glycan array binding signal (z-score),[31],-0.232
same,glycan array binding signal (z-score),[32],0.28
same,glycan array binding signal (z-score),[33],-0.145
same,glycan array binding signal (z-score),[34],0.052
same,glycan array binding signal (z-score),[35],-0.37
same,glycan array binding signal (z-score),[36],-0.489
same,glycan array binding signal (z-score),[37],-0.519
same,glycan array binding signal (z-score),[38],-0.177
same,glycan array binding signal (z-score),[39],-0.312
same,glycan array binding signal (z-score),[40],-0.007
same,glycan array binding signal (z-score),[41],-0.235
same,glycan array binding signal (z-score),[42],-0.436
same,glycan array binding signal (z-score),[43],-0.645
same,glycan array binding signal (z-score),[44],-0.398
same,glycan array binding signal (z-score),[45],-0.636
same,glycan array binding signal (z-score),[46],-0.3

# Source: the supplement of paper PMC8728848
